The values below come from patent publication US4368192 (dated 1983).

A short description of the data set: general procedure: solution-phase peptide synthesis; DCCD/HOBT; DCCD/HOSU. To be noted: barium salt.

As to “B--Arg(B2)--Asp(OtBu)--Tyr(SO2 Ba1/2)-Thr(tBu)--Gly--Trp--Leu--Asp(OtBu)--Phe--NH2”, the step yield (coupling step) worked out at 96%. Same read-out and setting: the figure for “B--Tyr(SO3 Ba1/2)--Thr(tBu)--Gly--Trp--Leu-Asp(OtBu)--Phe--NH2” is 70%. On to “H--Arg--Asp(OtBu)--Tyr(SO3 H)-Thr(tBu)--Gly--Trp--Leu--Asp(OtBu)--Phe--NH2”, for which the step yield (late stage modification step) is on record as 83% of theoretical. For “H-Tyr(SO3 Ba1/2)-Thr(tBu)--Gly--Trp--Leu--Asp(OtBu)-Phe-NH2”, the step yield (late stage modification step) is recorded as 96% of theoretical.
